{"sequences": {"note": "The chains behind the UniProt entries cited, without tags or fusion partners. Residues count along the entry.", "UniProt A0JNW5, residues 1312-1464": "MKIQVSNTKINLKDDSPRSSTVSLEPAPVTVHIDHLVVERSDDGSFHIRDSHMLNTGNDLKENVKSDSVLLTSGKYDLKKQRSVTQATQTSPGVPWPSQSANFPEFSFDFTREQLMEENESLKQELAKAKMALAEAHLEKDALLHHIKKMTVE", "UniProt P63167": "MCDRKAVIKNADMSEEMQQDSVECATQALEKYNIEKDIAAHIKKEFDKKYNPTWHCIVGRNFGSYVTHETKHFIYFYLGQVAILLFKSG"}, "source": "paper PMC9067936", "about": "“SHIP164 is a chorein motif lipid transfer protein that controls endosome–Golgi membrane traffic” (The Journal of Cell Biology, 2022)", "key": {"[1]": {"target": "MBP-SHIP164_(1312–1464) (human) (UniProt A0JNW5)", "test": "SEC; eluate of the amylose resin run over a Superdex S200 column; fractions analysed by SDS-PAGE and Coomassie staining; both purified"}, "[2]": {"target": "MBP-SHIP164_(1312–1464) (human) (UniProt A0JNW5)", "test": "pull-down; both proteins co-expressed in E. coli from a polycistronic plasmid; lysate on amylose resin 1 h at 4°C, washed in 25 mM Tris pH 7.5, 200 mM NaCl, 1 mM BME, eluted with 10 mM maltose"}}, "note": "No constants are given. Whether binding was seen depends on the method and setting. For some assays here: In cells and extracts the contact can be indirect. Some entries that bind do so weakly or less than the wild type.", "data": [{"substance": "untagged LC8 (DYNLL1) (from UniProt P63167 1-89)", "values": [{"measurement": "binding", "setting": "[1]", "value": "binds"}, {"measurement": "binding", "setting": "[2]", "value": "binds"}]}]}
